# Results reported in paper doi:10.1101/2024.01.29.577840.
# The chains behind the UniProt entries cited, without tags or fusion partners.
# UniProt P63208: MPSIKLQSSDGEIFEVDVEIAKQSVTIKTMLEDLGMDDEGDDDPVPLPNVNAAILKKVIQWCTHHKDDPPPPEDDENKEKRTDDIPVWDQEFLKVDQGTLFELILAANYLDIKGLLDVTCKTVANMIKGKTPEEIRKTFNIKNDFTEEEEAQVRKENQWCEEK
# These are yes or no findings as the source states them, for the method shown. In cells and extracts the contact can be indirect. These calls come from enrichment with a bait or labelling near it, and not all partners need be listed. For some of these results: A no says only that the protein was not detected with the bait. For some of these results: Where a sequence is shown, tags or fusion partners need not be part of it.
# T1: 3xHA-3xFLAG-FBXL5 (human) (UniProt Q9UKA1)
# T1 sequence: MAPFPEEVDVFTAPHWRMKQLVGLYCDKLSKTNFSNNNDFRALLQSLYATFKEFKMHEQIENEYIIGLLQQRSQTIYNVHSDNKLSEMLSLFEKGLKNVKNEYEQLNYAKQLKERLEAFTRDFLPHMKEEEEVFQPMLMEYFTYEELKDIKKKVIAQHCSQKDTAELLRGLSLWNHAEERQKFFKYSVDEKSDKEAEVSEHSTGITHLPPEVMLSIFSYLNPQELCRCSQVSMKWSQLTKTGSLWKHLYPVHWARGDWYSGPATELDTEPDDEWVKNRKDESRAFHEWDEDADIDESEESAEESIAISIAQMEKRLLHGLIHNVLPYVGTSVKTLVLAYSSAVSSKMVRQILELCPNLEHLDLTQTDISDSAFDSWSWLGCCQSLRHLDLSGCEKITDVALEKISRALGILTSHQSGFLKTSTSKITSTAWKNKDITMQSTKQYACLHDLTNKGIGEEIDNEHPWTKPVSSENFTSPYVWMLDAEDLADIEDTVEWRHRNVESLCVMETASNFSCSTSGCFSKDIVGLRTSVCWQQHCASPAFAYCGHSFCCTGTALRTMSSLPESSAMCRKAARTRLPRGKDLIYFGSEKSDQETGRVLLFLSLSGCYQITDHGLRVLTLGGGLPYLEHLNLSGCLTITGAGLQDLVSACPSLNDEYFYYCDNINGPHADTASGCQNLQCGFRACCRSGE
# T2: 3xHA-3xFLAG-FBXL5-4C>S (human) (UniProt Q9UKA1)
# T2 sequence: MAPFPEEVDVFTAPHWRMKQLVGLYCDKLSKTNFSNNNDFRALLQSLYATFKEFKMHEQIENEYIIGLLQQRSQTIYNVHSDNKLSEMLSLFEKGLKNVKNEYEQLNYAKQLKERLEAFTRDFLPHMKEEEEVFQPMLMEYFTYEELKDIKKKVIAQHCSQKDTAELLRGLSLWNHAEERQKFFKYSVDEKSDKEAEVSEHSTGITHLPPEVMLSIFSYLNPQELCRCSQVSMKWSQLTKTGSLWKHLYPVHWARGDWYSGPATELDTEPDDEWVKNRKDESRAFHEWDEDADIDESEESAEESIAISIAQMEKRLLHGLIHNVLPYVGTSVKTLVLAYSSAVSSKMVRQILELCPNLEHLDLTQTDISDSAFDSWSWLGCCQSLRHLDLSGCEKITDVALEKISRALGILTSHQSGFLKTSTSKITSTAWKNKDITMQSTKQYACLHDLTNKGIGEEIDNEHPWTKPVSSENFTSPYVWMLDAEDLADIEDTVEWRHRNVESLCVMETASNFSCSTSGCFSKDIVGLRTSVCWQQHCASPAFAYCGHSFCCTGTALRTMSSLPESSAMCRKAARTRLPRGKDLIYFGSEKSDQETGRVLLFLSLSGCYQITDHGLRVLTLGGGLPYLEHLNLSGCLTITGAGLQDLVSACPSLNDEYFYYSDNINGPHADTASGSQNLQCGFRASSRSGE
# Experiments:
# Assay in all cases: affinity purification with mass spectrometry
# [1] = molecular target: T1, 3xHA-3xFLAG-FBXL5 (human)
# [2] = molecular target: 3xHA-3xFLAG-FBXL5-ΔFbox (human) (UniProt Q9UKA1)
# [3] = molecular target: T2, 3xHA-3xFLAG-FBXL5-4C>S (human)
binding [1],binding [2],binding [3],Molecule
binds,–,–,SKP1 (endogenous) (from UniProt P63208 1-163)
binds,binds,no binding,"IRP2 (endogenous) (protein, UniProt P48200 1-963) MDAPKAGYAFEYLIETLNDSSHKKFFDVSKLGTKYDVLPYSIRVLLEAAVRNCDGFLMKKEDVMNILDWKTKQSNVEVPFFPARVLLQDFTGIPAMVDFAAMREAVKTLGGDPEKVHPACPTDLTVDHSLQIDFSKCAIQNAPNPGGGDLQKAGKLSPLKVQPKKLPCRGQTTCRGSCDSGELGRNSGTFSSQIENTPILCPFHLQPVPEPETVLKNQEVEFGRNRERLQFFKWSSRVFKNVAVIPPGTGMAHQINLEYLSRVVFEEKDLLFPDSVVGTDSHITMVNGLGILGWGVGGIETEAVMLGLPVSLTLPEVVGCELTGSSNPFVTSIDVVLGITKHLRQVGVAGKFVEFFGSGVSQLSIVDRTTIANMCPEYGAILSFFPVDNVTLKHLEHTGFSKAKLESMETYLKAVKLFRNDQNSSGEPEYSQVIQINLNSIVPSVSGPKRPQDRVAVTDMKSDFQACLNEKVGFKGFQIAAEKQKDIVSIHYEGSEYKLSHGSVVIAAVISCTNNCNPSVMLAAGLLAKKAVEAGLRVKPYIRTSLSPGSGMVTHYLSSSGVLPYLSKLGFEIVGYGCSICVGNTAPLSDAVLNAVKQGDLVTCGILSGNKNFEGRLCDCVRANYLASPPLVVAYAIAGTVNIDFQTEPLGTDPTGKNIYLHDIWPSREEVHRVEEEHVILSMFKALKDKIEMGNKRWNSLEAPDSVLFPWDLKSTYIRCPSFFDKLTKEPIALQAIENAHVLLYLGDSVTTDHISPAGSIARNSAAAKYLTNRGLTPREFNSYGARRGNDAVMTRGTFANIKLFNKFIGKPAPKTIHFPSGQTLDVFEAAELYQKEGIPLIILAGKKYGSGNSRDWAAKGPYLLGVKAVLAESYEKIHKDHLIGIGIAPLQFLPGENADSLGLSGRETFSLTFPEELSPGITLNIQTSTGKVFSVIASFEDDVEITLYKHGGLLNFVARKFS"
